According to the supplement of paper PMC10727501:
This is one part of the list. Single values are uncertain here, since repeats match poorly.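 Free-swimming zebrafish larvae were scored for O-bend response probability to dark flashes (naive: first five; training: remaining flashes of four 60-flash blocks; test: later 60-flash block) and for turning toward alternating leftward/rightward LED motion (OMR). Six treated larvae were compared with sixty 0.1% DMSO controls; |SSMD|≥2 defined a hit.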

Each compound was assayed on Danio rerio larvae (5 dpf, TLF) (assay: Prob-Train (SSMD vs DMSO vehicle); higher = higher than vehicle (e.g. higher dark-flash O-bend response probability, or better optomotor performance)). Conditions: 10 µM; pre-incubation: 30-90 min.

Row | Compound | Prob-Train
1 | Cc1cnc(Nc2ccc(OCCN3CCCC3)cc2)nc1Nc1cccc(S(=O)(=O)NC(C)(C)C)c1 | 0.165
2 | COC(=O)[C@H](c1ccccc1Cl)N1CCc2sccc2C1.O=S(=O)(O)O [Clopidogrel] | -1.95
3 | CN1CCN(S(=O)(=O)c2ccc(-c3cnc(N)c(C(=O)Nc4cccnc4)n3)cc2)CC1 | -0.0679
4 | Cc1ccc(O)c([C@H](CCN(C(C)C)C(C)C)c2ccccc2)c1.O=C(O)[C@H](O)[C@@H](O)C(=O)O [Tolterodine tartrate] | -0.38
5 | C=C[C@]1(C)C[C@@H](OC(=O)CSC(C)(C)CNC(=O)[C@H](N)C(C)C)[C@@]2(C)[C@H](C)CC[C@]3(CCC(=O)[C@H]32)[C@@H](C)[C@@H]1O.Cl [Valnemulin HCl] | -0.599
6 | CN1CCN(c2c(F)cc3c(=O)c(C(=O)O)cn(CCF)c3c2F)CC1 [Fleroxacin (Quinodis)] | -0.158
7 | CN1CCc2nc(C(=O)N[C@H]3C[C@H](C(=O)N(C)C)CC[C@@H]3NC(=O)C(=O)Nc3ccc(Cl)cn3)sc2C1 [Edoxaban] | -0.251
8 | CC(C)CN(C[C@@H](O)[C@H](Cc1ccccc1)NC(=O)O[C@H]1CCOC1)S(=O)(=O)c1ccc(N)cc1 [Amprenavir] | 0.0441
9 | O=C(O)c1ccc(O)c2ncccc12 | -0.225
10 | CN(C)Cc1ccc(S(=O)(=O)n2ccc(/C=C/C(=O)NO)c2)cc1 [Resminostat] | 0.274
11 | Oc1c(Cl)cc(Cl)c2cccnc12 [Chloroxine] | -2.22
12 | Cn1c(N2CCCCS2(=O)=O)nc(C(=O)NCc2ccc(F)cc2)c(O)c1=O | -0.645
13 | CCOC(=O)c1ccc(OC(=O)CCCCCNC(=N)N)cc1.CS(=O)(=O)O [Gabexate Mesylate] | 0.254
14 | CN(C)CC[C@H](CSc1ccccc1)Nc1ccc(S(=O)(=O)NC(=O)c2ccc(N3CCN(Cc4ccccc4-c4ccc(Cl)cc4)CC3)cc2)cc1[N+](=O)[O-] | -0.189
15 | CN(N=O)C(=O)N[C@@H]1[C@@H](O)[C@H](O)[C@@H](CO)O[C@@H]1O [Streptozotocin (STZ)] | -0.419
16 | CC(=O)Nc1cccc2c1c(Sc1ccc(Cl)cc1)c(C)n2CC(=O)O | -0.148
17 | Cc1nccn1CC1CCc2c(c3ccccc3n2C)C1=O (configuration not stated) [Ondansetron (Zofran)] | 0.241
18 | CCCCOc1ccc(OCCCN2CCOCC2)cc1.Cl [Pramoxine HCl] | -2.22
19 | Cn1cncc1[C@@](N)(c1ccc(Cl)cc1)c1ccc2c(c1)c(-c1cccc(Cl)c1)cc(=O)n2C [Tipifarnib] | -0.75
20 | CC(=O)OCC(=O)[C@]12N=C(C)O[C@@H]1C[C@H]1[C@@H]3CCC4=CC(=O)C=C[C@]4(C)[C@@H]3[C@H](O)C[C@@]12C [Deflazacort] | -0.545
21 | CN(C)CCCOc1nn(Cc2ccccc2)c2ccccc12.Cl [Benzydamine HCl] | 0.503
22 | CCCCCCNC(=O)n1cc(F)c(=O)[nH]c1=O [Carmofur] | -1.22
23 | C#CCN[C@H]1CCc2ccccc21.CS(=O)(=O)O [Rasagiline Mesylate] | -0.398
24 | Cc1nc2n(c(=O)c1CCN1CCC(c3noc4cc(F)ccc34)CC1)CCC[C@H]2O [Paliperidone (Invega)] | -0.619
25 | Cc1nc(-c2ccc(OCC(C)C)c(C#N)c2)sc1C(=O)O [Febuxostat] | -0.708
26 | CCCC(CCC)C(=O)[O-].[Na+] [Valproic acid sodium salt (Sodium valproate)] | -0.786
27 | COc1cc2ncnc(Nc3ccc(F)c(Cl)c3)c2cc1NC(=O)/C=C/CN1CCCCC1 | -0.594

Quoted from the listing.
Value for O=C(O)c1ccc(O)c2ncccc12 under Prob-Train: -0.225
Value for CCCCOc1ccc(OCCCN2CCOCC2)cc1.Cl [Pramoxine HCl] under Prob-Train: -2.22
